The supplement of paper PMC10849652
The list shows a part of the results.

By UniProt entry, the sequences of proteins in these tests, tags left out. Where a name states a change or a piece, a line headed by the entry shows the natural chain unless it says otherwise.
UniProt Q9NW15: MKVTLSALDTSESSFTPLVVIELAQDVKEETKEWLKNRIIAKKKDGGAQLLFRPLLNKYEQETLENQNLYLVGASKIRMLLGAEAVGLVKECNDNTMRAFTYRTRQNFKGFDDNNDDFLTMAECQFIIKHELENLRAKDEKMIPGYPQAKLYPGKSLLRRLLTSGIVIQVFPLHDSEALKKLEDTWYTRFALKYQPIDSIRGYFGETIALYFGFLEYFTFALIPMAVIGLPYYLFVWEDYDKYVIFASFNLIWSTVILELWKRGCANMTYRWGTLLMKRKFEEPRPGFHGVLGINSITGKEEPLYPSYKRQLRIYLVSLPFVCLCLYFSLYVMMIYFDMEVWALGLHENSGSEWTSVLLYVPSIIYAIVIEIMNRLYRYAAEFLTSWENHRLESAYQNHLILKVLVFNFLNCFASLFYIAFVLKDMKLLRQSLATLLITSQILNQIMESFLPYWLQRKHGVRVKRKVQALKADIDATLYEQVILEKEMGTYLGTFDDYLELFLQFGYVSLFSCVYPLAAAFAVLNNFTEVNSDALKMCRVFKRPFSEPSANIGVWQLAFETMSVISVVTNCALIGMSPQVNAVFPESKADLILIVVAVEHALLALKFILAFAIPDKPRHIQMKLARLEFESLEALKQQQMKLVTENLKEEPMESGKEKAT
UniProt P02654: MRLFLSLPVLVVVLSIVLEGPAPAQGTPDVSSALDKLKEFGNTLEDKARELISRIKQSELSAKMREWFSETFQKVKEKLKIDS
UniProt P07741: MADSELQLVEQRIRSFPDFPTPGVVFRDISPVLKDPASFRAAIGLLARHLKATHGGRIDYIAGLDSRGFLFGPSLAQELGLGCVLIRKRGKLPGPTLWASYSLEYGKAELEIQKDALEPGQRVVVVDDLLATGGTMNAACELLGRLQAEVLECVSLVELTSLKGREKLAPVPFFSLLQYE
UniProt Q9Y6D6: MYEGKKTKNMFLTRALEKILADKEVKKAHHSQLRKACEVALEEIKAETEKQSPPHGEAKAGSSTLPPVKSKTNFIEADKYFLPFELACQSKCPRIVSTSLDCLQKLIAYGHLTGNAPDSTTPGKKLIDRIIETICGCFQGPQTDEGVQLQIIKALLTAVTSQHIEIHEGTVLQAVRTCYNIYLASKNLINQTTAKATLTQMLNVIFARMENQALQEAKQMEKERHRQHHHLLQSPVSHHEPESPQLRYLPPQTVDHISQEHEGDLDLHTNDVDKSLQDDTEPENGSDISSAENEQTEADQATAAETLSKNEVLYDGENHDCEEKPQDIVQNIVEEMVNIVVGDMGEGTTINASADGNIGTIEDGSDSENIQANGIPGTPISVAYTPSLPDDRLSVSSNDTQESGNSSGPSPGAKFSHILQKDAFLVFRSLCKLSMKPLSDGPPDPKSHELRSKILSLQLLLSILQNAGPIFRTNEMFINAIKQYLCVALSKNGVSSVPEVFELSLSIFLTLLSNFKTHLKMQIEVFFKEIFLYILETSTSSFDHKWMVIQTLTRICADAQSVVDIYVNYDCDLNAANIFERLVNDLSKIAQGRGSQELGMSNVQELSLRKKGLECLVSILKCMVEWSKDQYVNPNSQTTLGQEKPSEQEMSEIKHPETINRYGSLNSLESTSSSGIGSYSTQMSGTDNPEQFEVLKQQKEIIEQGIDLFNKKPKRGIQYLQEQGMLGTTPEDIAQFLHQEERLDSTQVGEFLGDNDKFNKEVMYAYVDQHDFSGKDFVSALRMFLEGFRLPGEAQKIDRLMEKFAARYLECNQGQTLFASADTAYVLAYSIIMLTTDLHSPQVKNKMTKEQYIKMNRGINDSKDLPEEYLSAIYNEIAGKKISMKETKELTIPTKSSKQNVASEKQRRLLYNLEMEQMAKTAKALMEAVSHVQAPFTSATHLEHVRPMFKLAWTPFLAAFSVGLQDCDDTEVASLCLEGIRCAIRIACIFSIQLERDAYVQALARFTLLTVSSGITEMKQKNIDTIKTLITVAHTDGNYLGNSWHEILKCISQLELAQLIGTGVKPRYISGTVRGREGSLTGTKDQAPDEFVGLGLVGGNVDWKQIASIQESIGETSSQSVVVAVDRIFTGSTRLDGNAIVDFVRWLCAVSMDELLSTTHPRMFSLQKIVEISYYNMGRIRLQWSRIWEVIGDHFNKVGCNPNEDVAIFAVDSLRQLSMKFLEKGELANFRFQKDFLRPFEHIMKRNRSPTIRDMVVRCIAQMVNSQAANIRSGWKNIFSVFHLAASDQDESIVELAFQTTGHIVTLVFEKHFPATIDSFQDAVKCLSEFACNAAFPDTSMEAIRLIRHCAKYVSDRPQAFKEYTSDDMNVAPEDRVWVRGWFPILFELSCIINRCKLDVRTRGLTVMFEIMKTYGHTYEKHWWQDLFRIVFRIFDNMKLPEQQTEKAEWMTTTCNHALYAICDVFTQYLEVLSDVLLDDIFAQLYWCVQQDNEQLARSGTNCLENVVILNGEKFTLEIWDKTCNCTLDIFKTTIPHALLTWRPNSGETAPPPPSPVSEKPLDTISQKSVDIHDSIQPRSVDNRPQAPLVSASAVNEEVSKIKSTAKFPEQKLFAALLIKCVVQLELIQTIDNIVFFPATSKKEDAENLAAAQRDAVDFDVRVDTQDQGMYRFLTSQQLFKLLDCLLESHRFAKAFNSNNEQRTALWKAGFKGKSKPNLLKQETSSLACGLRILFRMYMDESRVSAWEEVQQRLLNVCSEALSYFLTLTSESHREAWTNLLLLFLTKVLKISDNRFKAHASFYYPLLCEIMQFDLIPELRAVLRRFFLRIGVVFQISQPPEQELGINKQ
UniProt Q9NQW6: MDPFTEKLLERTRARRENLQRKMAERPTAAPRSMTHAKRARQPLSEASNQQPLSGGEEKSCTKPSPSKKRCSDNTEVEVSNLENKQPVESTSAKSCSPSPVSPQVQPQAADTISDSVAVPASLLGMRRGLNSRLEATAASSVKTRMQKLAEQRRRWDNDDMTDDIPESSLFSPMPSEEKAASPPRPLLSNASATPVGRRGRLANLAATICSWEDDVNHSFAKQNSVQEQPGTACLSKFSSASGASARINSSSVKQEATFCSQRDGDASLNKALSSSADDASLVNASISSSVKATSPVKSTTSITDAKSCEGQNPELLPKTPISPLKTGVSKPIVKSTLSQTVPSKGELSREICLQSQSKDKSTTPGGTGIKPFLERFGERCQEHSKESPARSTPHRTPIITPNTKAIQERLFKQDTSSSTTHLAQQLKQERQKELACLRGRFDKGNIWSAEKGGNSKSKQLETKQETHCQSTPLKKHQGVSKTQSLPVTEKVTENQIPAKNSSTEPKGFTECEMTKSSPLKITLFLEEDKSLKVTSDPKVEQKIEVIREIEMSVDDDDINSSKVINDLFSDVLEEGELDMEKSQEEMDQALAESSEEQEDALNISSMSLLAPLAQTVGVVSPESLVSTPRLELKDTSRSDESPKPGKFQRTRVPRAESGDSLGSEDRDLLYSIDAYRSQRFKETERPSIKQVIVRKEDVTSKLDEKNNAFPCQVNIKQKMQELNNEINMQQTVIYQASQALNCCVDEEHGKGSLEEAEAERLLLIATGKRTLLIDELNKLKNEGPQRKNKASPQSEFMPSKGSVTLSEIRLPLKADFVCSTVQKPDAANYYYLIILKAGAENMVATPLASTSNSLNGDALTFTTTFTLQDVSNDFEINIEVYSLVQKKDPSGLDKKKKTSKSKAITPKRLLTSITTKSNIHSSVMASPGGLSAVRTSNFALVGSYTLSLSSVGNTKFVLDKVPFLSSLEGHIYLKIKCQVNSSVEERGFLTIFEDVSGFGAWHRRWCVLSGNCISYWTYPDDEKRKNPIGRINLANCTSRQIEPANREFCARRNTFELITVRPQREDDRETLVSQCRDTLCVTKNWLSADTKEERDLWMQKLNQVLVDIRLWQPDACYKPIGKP
UniProt Q9UJX6, whole entry, looked up: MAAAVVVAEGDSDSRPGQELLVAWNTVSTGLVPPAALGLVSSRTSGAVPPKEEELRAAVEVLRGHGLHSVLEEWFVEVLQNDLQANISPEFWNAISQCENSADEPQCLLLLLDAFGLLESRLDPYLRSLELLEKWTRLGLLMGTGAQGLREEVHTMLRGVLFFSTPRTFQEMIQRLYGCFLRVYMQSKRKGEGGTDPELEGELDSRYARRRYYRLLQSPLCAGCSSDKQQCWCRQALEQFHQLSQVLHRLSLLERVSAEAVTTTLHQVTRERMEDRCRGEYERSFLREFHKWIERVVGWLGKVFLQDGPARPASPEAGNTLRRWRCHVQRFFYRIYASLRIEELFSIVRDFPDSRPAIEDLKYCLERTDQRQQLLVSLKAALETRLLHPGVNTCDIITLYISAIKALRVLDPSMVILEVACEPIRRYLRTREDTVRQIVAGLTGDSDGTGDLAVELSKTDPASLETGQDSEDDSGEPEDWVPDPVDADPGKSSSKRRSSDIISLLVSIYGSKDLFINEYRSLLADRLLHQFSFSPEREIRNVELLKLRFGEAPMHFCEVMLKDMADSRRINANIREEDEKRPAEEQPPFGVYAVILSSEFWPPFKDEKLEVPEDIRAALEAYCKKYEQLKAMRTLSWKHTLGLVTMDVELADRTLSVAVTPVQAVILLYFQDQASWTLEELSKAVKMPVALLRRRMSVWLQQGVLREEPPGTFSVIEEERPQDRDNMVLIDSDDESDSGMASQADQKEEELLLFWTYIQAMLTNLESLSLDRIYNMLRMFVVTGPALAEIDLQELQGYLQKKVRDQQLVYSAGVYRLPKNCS
UniProt Q8N392: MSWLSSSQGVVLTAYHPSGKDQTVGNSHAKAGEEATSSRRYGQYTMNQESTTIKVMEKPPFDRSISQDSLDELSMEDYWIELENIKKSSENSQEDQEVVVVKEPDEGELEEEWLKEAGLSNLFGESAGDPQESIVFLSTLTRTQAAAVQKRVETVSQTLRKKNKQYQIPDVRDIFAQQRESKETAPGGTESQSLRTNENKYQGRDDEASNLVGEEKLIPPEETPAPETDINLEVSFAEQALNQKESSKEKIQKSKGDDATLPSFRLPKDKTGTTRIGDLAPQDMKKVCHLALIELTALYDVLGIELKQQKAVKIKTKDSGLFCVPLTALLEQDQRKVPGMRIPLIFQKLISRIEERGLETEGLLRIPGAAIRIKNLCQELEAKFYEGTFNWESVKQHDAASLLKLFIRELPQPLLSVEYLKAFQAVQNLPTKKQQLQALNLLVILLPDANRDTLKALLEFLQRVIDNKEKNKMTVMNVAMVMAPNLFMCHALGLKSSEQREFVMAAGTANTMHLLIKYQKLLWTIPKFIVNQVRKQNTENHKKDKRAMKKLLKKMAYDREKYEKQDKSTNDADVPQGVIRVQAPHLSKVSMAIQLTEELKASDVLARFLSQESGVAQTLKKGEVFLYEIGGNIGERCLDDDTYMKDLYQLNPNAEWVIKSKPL
UniProt Q92888: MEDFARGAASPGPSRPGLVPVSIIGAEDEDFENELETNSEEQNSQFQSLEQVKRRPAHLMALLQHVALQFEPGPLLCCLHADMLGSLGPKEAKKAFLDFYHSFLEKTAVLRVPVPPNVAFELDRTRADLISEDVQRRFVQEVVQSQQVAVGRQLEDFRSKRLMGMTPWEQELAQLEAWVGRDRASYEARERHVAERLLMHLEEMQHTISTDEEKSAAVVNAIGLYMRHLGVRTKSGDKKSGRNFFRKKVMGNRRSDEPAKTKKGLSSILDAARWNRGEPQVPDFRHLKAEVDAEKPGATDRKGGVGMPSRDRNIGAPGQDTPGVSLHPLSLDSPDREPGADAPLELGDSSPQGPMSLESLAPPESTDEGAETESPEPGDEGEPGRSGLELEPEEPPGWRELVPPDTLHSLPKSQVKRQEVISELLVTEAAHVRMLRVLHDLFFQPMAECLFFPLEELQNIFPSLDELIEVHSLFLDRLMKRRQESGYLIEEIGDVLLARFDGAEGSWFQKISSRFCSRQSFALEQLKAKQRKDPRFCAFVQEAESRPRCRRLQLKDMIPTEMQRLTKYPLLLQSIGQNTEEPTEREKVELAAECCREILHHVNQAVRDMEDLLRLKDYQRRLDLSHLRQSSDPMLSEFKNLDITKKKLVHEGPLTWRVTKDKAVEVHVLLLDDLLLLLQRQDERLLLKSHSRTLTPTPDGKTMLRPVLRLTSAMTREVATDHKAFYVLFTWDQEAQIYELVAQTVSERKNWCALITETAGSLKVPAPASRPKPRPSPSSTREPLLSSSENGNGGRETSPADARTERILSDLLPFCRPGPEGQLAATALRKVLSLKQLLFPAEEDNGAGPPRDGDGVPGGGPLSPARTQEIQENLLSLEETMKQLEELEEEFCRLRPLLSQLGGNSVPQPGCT
UniProt Q8WVL7: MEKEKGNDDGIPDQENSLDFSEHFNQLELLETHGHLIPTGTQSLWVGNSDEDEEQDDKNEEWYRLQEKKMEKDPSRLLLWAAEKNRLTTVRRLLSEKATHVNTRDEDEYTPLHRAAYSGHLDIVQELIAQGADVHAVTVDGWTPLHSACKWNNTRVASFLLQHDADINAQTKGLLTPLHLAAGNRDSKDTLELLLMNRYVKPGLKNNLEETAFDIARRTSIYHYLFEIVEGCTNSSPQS

Assays:
Experiment in all cases: log2 fold change, soluble protein after heating vs DMSO (PISA); higher = thermal stabilisation; K562 cells, 10 uM, 30 min; active = over 0.2 and 3.5 SD of the protein, either way, in both replicates (recomputed)
[1] = compound: CC1=C(C=C(C=C1)NC(=O)C2=CC(=CC=C2)C(C)(C)C#N)NC3=CC4=C(C=C3)N=CN(C4=O)C
In short: (§1)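 K562 cells at 2×10^6 cells/mL were treated for 30 min with 10 μM compound, and aliquots were heated for 3 min over 48°C-58°C before pooling. Extraction used PBS with 0.5% NP-40 at 4°C, and soluble protein was the supernatant after 21,000xg for 90 min, measured by TMTpro 16plex LC-MS/MS with channel sums equalised. Thermal stability values, relative to control samples and from duplicates, are log2 fold changes.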

[2] = compound: CC1=C(C=C(C=C1)NC(=O)C2=CC(=CC=C2)N(C)C)NC(=O)C3=CC=C(C=C3)O
In short: as §1

[3] = compound: CC1=CC=C(C=C1)SC2=C3C=C(SC3=CN=C2)C(=O)N
In short: as §1

[4] = compound: CC1=NC(=CC=C1)C2=C(N=C(N2)C(C)(C)C)C3=CC4=NC=CN=C4C=C3
In short: as §1

Nexturastat A = compound: CCCCN(Cc1ccc(C(=O)NO)cc1)C(=O)Nc1ccccc1 [Nexturastat A]
In short: as §1

vemurafenib = compound: CCCS(=O)(=O)Nc1ccc(F)c(C(=O)c2c[nH]c3ncc(-c4ccc(Cl)cc4)cc23)c1F [vemurafenib]
In short: as §1

[5] = compound: CCCS(=O)(=O)Nc1ccc(F)c(C(=O)c2c[nH]c3ncc(Cl)cc23)c1F
In short: as §1

[6] = compound: CCCc1cc(C)[nH]c(=O)c1CNC(=O)c1cc(-c2ccnc(N3CCN(C)CC3)c2)cc2c1cnn2C(C)C
In short: as §1

givinostat = compound: CCN(CC)Cc1ccc2cc(COC(=O)Nc3ccc(C(=O)NO)cc3)ccc2c1 [givinostat]
In short: as §1

barasertib = compound: CCN(CCCOc1ccc2c(Nc3cc(CC(=O)Nc4cccc(F)c4)[nH]n3)ncnc2c1)CCOP(=O)(O)O [barasertib]
In short: as §1

Measured: log2 fold change

ARHGEF2 (UniProt Q92974)
inactive: [1] 0.004 | [2] -0.022 | [3] 0.062 | [4] -0.07 | Nexturastat A 0.476 | vemurafenib -0.024 | [5] 0.029 | [6] 0.186 | givinostat 0.164 | barasertib 0.013

ANKRD29 (UniProt Q8N6D5)
inactive: [1] 0.046 | [2] 0.022 | [3] 0.027 | [4] -0.035 | Nexturastat A 0.371 | vemurafenib -0.064 | [5] -0.031 | [6] -0.073 | givinostat 0.247 | barasertib -0.124

APOE (UniProt P02649)
inactive: [1] -0.036 | [2] -0.022 | [3] 0.075 | [4] 0.018 | Nexturastat A -0.027 | vemurafenib 0.142 | [5] -0.02 | [6] -0.019 | givinostat -0.058 | barasertib 0.053

ARFRP1 (UniProt Q13795)
inactive: [1] 0.138 | [2] 0.003 | [3] 0.082 | [4] 0.069 | Nexturastat A -0.048 | vemurafenib 0.033 | [5] 0 | [6] 0.046 | givinostat 0.012 | barasertib -0.015

APH1B (UniProt Q8WW43)
inactive: [1] -0.241

AP3B1 (UniProt O00203)
inactive: [1] -0.001 | [2] -0.038 | [3] 0.002 | [4] 0.016 | Nexturastat A 0.009 | vemurafenib 0.022 | [5] 0.054 | [6] 0.019 | givinostat 0.024 | barasertib 0.054

ANO10 (UniProt Q9NW15)
inactive: [1] 0.011 | [2] -0.02 | [3] -0.014 | [4] 0.028 | Nexturastat A -0.099 | vemurafenib 0.043 | [5] 0.016 | [6] -0.004 | givinostat -0.018 | barasertib -0.016

APOC1 (UniProt P02654)
inactive: [1] 0.037 | [2] -0.038 | [3] -0.006 | [4] -0.087 | Nexturastat A 0.054 | vemurafenib -0.031 | [5] -0.053 | [6] 0.019 | givinostat -0.086 | barasertib 0.03

API5 isoform 2 (UniProt Q9BZZ5)
inactive: [1] -0.017 | [2] 0 | [3] -0.102 | [4] 0.003 | Nexturastat A -0.037 | vemurafenib -0.047 | [5] -0.048 | [6] -0.021 | givinostat -0.067 | barasertib -0.017

AP5Z1 (UniProt O43299)
inactive: [1] -0.092 | [2] 0.017 | [3] -0.027 | [4] -0.252 | Nexturastat A 0.08 | vemurafenib -0.081 | [5] -0.094 | [6] 0.11 | givinostat 0.092 | barasertib -0.024

ARHGEF7 isoform 5 (UniProt Q14155)
inactive: [1] 0.033 | [2] -0.053 | [3] 0.024 | [4] 0.02 | Nexturastat A 0.291 | vemurafenib -0.004 | [5] 0.005 | [6] 0.097 | givinostat 0.081 | barasertib 0.099

APEH (UniProt P13798)
inactive: [1] -0.012 | [2] 0.011 | [3] 0.002 | [4] -0.01 | Nexturastat A -0.062 | vemurafenib -0.024 | [5] -0.011 | [6] -0.018 | givinostat -0.019 | barasertib 0.011

APRT (UniProt P07741)
inactive: [1] -0.042 | [2] 0.014 | [3] 0.021 | [4] 0 | Nexturastat A -0.01 | vemurafenib -0.031 | [5] 0.001 | [6] -0.018 | givinostat -0.006 | barasertib 0.011

ARFGAP2 (UniProt Q8N6H7)
inactive: [1] 0.03 | [2] -0.065 | [3] -0.027 | [4] -0.04 | Nexturastat A -0.033 | vemurafenib 0.02 | [5] 0.033 | [6] 0.021 | givinostat 0.06 | barasertib 0.066

ANGPTL3 (UniProt Q9Y5C1)
inactive: [1] -0.038 | [2] -0.105 | [3] -0.034 | [4] 0.145 | Nexturastat A -0.004 | vemurafenib 0.158 | [5] -0.235 | [6] -0.141 | givinostat -0.154 | barasertib 0.012

Taken from the results shown (8 entries):
APOC1 (UniProt P02654)
inactive: [1] 0.037 | [2] -0.038 | [3] -0.006 | [4] -0.087 | Nexturastat A 0.054 | vemurafenib -0.031 | [5] -0.053 | [6] 0.019 | givinostat -0.086 | barasertib 0.03

API5 isoform 2 (UniProt Q9BZZ5)
inactive: [1] -0.017 | [2] 0 | [3] -0.102 | [4] 0.003 | Nexturastat A -0.037 | vemurafenib -0.047 | [5] -0.048 | [6] -0.021 | givinostat -0.067 | barasertib -0.017

AP5Z1 (UniProt O43299)
inactive: [1] -0.092 | [2] 0.017 | [3] -0.027 | [4] -0.252 | Nexturastat A 0.08 | vemurafenib -0.081 | [5] -0.094 | [6] 0.11 | givinostat 0.092 | barasertib -0.024

ARHGEF7 isoform 5 (UniProt Q14155)
inactive: [1] 0.033 | [2] -0.053 | [3] 0.024 | [4] 0.02 | Nexturastat A 0.291 | vemurafenib -0.004 | [5] 0.005 | [6] 0.097 | givinostat 0.081 | barasertib 0.099

APEH (UniProt P13798)
inactive: [1] -0.012 | [2] 0.011 | [3] 0.002 | [4] -0.01 | Nexturastat A -0.062 | vemurafenib -0.024 | [5] -0.011 | [6] -0.018 | givinostat -0.019 | barasertib 0.011

APRT (UniProt P07741)
inactive: [1] -0.042 | [2] 0.014 | [3] 0.021 | [4] 0 | Nexturastat A -0.01 | vemurafenib -0.031 | [5] 0.001 | [6] -0.018 | givinostat -0.006 | barasertib 0.011

ARFGAP2 (UniProt Q8N6H7)
inactive: [1] 0.03 | [2] -0.065 | [3] -0.027 | [4] -0.04 | Nexturastat A -0.033 | vemurafenib 0.02 | [5] 0.033 | [6] 0.021 | givinostat 0.06 | barasertib 0.066

ANGPTL3 (UniProt Q9Y5C1)
inactive: [1] -0.038 | [2] -0.105 | [3] -0.034 | [4] 0.145 | Nexturastat A -0.004 | vemurafenib 0.158 | [5] -0.235 | [6] -0.141 | givinostat -0.154 | barasertib 0.012

Continued:

ANKHD1 isoform 6 (UniProt Q8IWZ3)
inactive: [1] 0.044 | [2] 0.041 | [3] 0.007 | [4] -0.079 | Nexturastat A 0.249 | vemurafenib 0.002 | [5] 0.083 | [6] 0.062 | givinostat 0.071 | barasertib 0.02

ARFGEF1 (UniProt Q9Y6D6)
inactive: [1] -0.03 | [2] -0.013 | [3] -0.014 | [4] 0 | Nexturastat A -0.042 | vemurafenib 0.035 | [5] 0.041 | [6] 0.155 | givinostat 0.029 | barasertib -0.015

ANLN (UniProt Q9NQW6)
inactive: [1] -0.13 | [2] 0.05 | [3] -0.144 | [4] -0.078 | Nexturastat A 0.023 | vemurafenib 0.075 | [5] -0.233 | [6] 0.005 | givinostat 0.059 | barasertib 0.261

ARHGAP17 (UniProt Q68EM7)
inactive: [1] -0.13 | [2] -0.048 | [3] 0.021 | [4] 0.068 | Nexturastat A 0.037 | vemurafenib -0.032 | [5] 0.118 | [6] 0.107 | givinostat 0.153 | barasertib 0.018

ANAPC2 (UniProt Q9UJX6)
inactive: [1] 0.031 | [2] -0.015 | [3] -0.001 | [4] 0.069 | Nexturastat A -0.045 | vemurafenib 0.027 | [5] 0.047 | [6] -0.049 | givinostat 0.042 | barasertib 0.022

ARHGAP12 (UniProt Q8IWW6)
inactive: [1] -0.008 | [2] 0.002 | [3] 0.012 | [4] -0.129 | Nexturastat A 0.301 | vemurafenib -0.045 | [5] 0.005 | [6] 0.011 | givinostat 0.111 | barasertib -0.026

AP2B1 isoform 2 (UniProt P63010)
inactive: [1] 0.016 | [2] 0.018 | [3] 0.021 | [4] 0.018 | Nexturastat A 0.033 | vemurafenib 0.031 | [5] 0.039 | [6] -0.021 | givinostat 0.015 | barasertib -0.013

ARHGAP18 (UniProt Q8N392)
inactive: [1] -0.018 | [2] -0.049 | [3] 0.057 | [4] 0.076 | Nexturastat A 0.05 | vemurafenib 0.07 | [5] 0.06 | [6] 0.037 | givinostat 0.093 | barasertib 0.063

AP3D1 isoform 5 (UniProt O14617)
inactive: [1] 0.022 | [2] -0.051 | [3] 0.039 | [4] 0.022 | Nexturastat A 0.039 | vemurafenib 0.102 | [5] 0.099 | [6] 0.008 | givinostat 0.02 | barasertib 0.009

AP1B1 (UniProt Q10567)
inactive: [1] 0.01 | [2] -0.017 | [3] 0.071 | [4] -0.009 | Nexturastat A -0.048 | vemurafenib 0.017 | [5] 0.11 | [6] -0.049 | givinostat 0.019 | barasertib 0.007

ANXA3 (UniProt P12429)
inactive: [1] -0.04 | [2] 0.003 | [3] 0.009 | [4] -0.014 | Nexturastat A -0.059 | vemurafenib 0 | [5] 0.012 | [6] -0.002 | givinostat 0.008 | barasertib 0.032

ARF5 (UniProt P84085)
inactive: [1] -0.031 | [2] -0.017 | [3] 0 | [4] 0.038 | Nexturastat A -0.091 | vemurafenib -0.001 | [5] 0.011 | [6] -0.011 | givinostat -0.021 | barasertib -0.025

ARHGEF1 isoform 3 (UniProt Q92888)
inactive: [1] 0 | [2] -0.023 | [3] 0.008 | [4] -0.014 | Nexturastat A 0.224 | vemurafenib 0.089 | [5] 0.042 | [6] 0.045 | givinostat 0.124 | barasertib 0.047

ARHGDIA (UniProt P52565)
inactive: [1] 0.01 | [2] 0.016 | [3] -0.019 | [4] -0.012 | Nexturastat A -0.006 | vemurafenib 0.026 | [5] 0.069 | [6] 0.083 | givinostat -0.002 | barasertib 0.031

ANKRD49 (UniProt Q8WVL7)
inactive: [1] 0.03 | [2] -0.046 | [3] 0.048 | [4] 0.011 | Nexturastat A -0.212 | vemurafenib 0.071 | [5] 0.079 | [6] 0.014 | givinostat 0.087 | barasertib -0.001
